Laboratory results taken from PubChem BioAssay AID1347423 (Functional Genomics Laboratory (NCATS/FGL), 2020).
Out of some 52,000 sequences screened, about 210 (0.4%) were called active.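 How the source made its calls: active means gene whose silencing raises cell survival under the drug, median off-target-corrected z-score across its silencing RNAs 2 or more; inactive means the rest.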 This is one part of the list.

experiment: Resistance to Poly (ADP-Ribose) Polymerase inhibitor: Gene Identification via Genome-wide siRNA Screen; conditions: mouse BRCA2 R2336H ES cells, olaparib, CellTiter-Glo viability; hits give high values
In short: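 Genome-wide siRNA screen (3 siRNAs/gene, 20 nM) in mouse ES cells carrying hypomorphic BRCA2 R2336H; olaparib 500 nM added 48 h post-transfection, CellTiter-Glo viability 72 h later. Normalized to plate-median negative control; MAD z-scores, gene median, seed-adjusted.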

Sequence	z-score
GCCUAUGGCUGGUCAGUGUTT against LOC271048	inactive: 0.367
GGGUUCUUGGACAAACAGGTT against Eps15-rs	inactive: -0.128
GGAGAGUAUUCCAAGGUCCTT against Mrpl14	inactive: 0.567
UCUAUCUCAUUACUAUUGUTT against Olfr190	inactive: 1.13
GGAUUUAAUAGCCAUCGGUTT against Slc26a8	inactive: -0.333
GGAUCUUGACUUUGAUAUGTT against Trpm4	inactive: 0.316
GGUCCUAGGUGCUAUAAUGTT against Matn4	inactive: -1.01
GCUGAAGAGAUAUGAGUUCTT against Dpp3	inactive: 1.28
GGCAGCUUUGGAACAACUATT against 2700069A02Rik	inactive: -0.481
CGUUCAUGUAUUUGAUGUATT against Asb4	inactive: -0.775
CCUUACUGGGUUAGAGAUGTT against Sdf2	inactive: 1.42
CGUGUCUCAUGGCAGAGUUTT against 6330527O06Rik	inactive: 0.108
GGUCACAGUUGUUUGAAGUTT against Bst2	inactive: -0.291
GGUCCGACUGUCAUGAAUGTT against Dirc2	inactive: -0.488
GCAGAGGUCUCUAAGCCAUTT against Lad1	inactive: -0.575
GAGAGAAUCCGUCAACGGATT against 4833420G17Rik	inactive: 0.643
GGACACUUAAAGAUCCUGCTT against Armc7	inactive: 0.194
CCUGAUCUUGCACUCGAUGTT against Tbx6	inactive: -0.295
GGGUGUUCAUACAAGCCGUTT against Zp1	inactive: 0.853
CCUGCACAGGAUAAUUAUGTT against Zfp426	inactive: 1.21
GGAGAAACGGUACAUCUGUTT against Gstm5	inactive: 0.631
CCUCUCAGAUUUUCACAUATT against BC050092	inactive: 0.559
GGGUAAUUGUCUCUAGUAATT against Adam24	inactive: 1.6
CCUCCUUAGACUCAAAUCCTT against Nfe2l2	inactive: 1.31
GGAAGAGCCAUCGUUUGCCTT against St5	inactive: 1.01
GCGCAACAUCUAUAAACGGTT against Mtmr4	inactive: 1.3
GGAAGAGAUAGCUUGAUUUTT against G22p1	inactive: -1.68
GGAUUUAUACUGAAUUGUCTT against Rpl39	inactive: 0.215
CCUGAGUCCACUGAUGAAGTT against LOC432988	inactive: -1.54

2 entries drawn at random from those above, as already listed:
Sequence	z-score
GAGAGAAUCCGUCAACGGATT against 4833420G17Rik	inactive: 0.643
GGGUAAUUGUCUCUAGUAATT against Adam24	inactive: 1.6
